Results published in the supplement of paper PMC9233669.
Variants at the floor of the assay are shown more often than the library holds them.

Columns and labels:
biotinyl-Ile-oxazolone = assay: self-aminoacylation, catalytic enhancement (BIO) (fold over background); higher = more active; k-Seq, kA / k0A0; sequences stand for … in GGGAAUGGAUCCACAUCUACGAAUUC…UUCACUGCAGACUUGACGAAGCUG
Outline: (§1)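 Mutagenized RNA pools (0.43 μM; 21-nt variable region) were treated with 2–1250 μM of each biotinyl-aminoacyl-oxazolone. Conditions were 50 μL HEPES/NaCl/KCl/MgCl2/CaCl2 buffer, 5% acetonitrile, pH 6.9–7.0, room temperature, 90 minutes. Catalytic enhancement, the median kA relative to the uncatalyzed rate, was derived from streptavidin capture, qPCR and Illumina sequencing.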

biotinyl-Met-oxazolone = assay: self-aminoacylation, catalytic enhancement (BMO) (fold over background); higher = more active; k-Seq, kA / k0A0; sequences stand for … in GGGAAUGGAUCCACAUCUACGAAUUC…UUCACUGCAGACUUGACGAAGCUG
Outline: as §1

biotinyl-Leu-oxazolone = assay: self-aminoacylation, catalytic enhancement (BLO) (fold over background); higher = more active; k-Seq, kA / k0A0; sequences stand for … in GGGAAUGGAUCCACAUCUACGAAUUC…UUCACUGCAGACUUGACGAAGCUG
Outline: as §1

biotinyl-Trp-oxazolone = assay: self-aminoacylation, catalytic enhancement (BWO) (fold over background); higher = more active; k-Seq, kA / k0A0; sequences stand for … in GGGAAUGGAUCCACAUCUACGAAUUC…UUCACUGCAGACUUGACGAAGCUG
Outline: as §1

biotinyl-Phe-oxazolone = assay: self-aminoacylation, catalytic enhancement (BFO) (fold over background); higher = more active; k-Seq, kA / k0A0; sequences stand for … in GGGAAUGGAUCCACAUCUACGAAUUC…UUCACUGCAGACUUGACGAAGCUG
Outline: as §1

biotinyl-Val-oxazolone = assay: self-aminoacylation, catalytic enhancement (BVO) (fold over background); higher = more active; k-Seq, kA / k0A0; sequences stand for … in GGGAAUGGAUCCACAUCUACGAAUUC…UUCACUGCAGACUUGACGAAGCUG
Outline: as §1

Sequence	self-aminoacylation (biotinyl-Ile-oxazolone)	self-aminoacylation (biotinyl-Met-oxazolone)	self-aminoacylation (biotinyl-Leu-oxazolone)	self-aminoacylation (biotinyl-Trp-oxazolone)	self-aminoacylation (biotinyl-Phe-oxazolone)	self-aminoacylation (biotinyl-Val-oxazolone)
AAGUUUACUAAUAGUCGGAAG [Fam3.1 aminoacylation ribozyme variant]	1.26	1.05	0.654	1.05	1.59	1.01
AAGUUUACUAAUUGUCGCAAG [Fam3.1 aminoacylation ribozyme variant]	1.97	1.68	1.74	2	2.6	1.56
AAGUUUCCCAAUAGUCGCAAG [Fam3.1 aminoacylation ribozyme variant]	1.26	1.44	1.24	1.69	1.52	1.02
AAGUUUGAUAAUAGUCGCAGG [Fam3.1 aminoacylation ribozyme variant]	1.21	1.53	1.27	0.976	1.61	1.11
AAGUUUGCAAAUAGACGCAAG [Fam3.1 aminoacylation ribozyme variant]	0.729	0.592	0.683	0.642	1.08	0.728
AAGUUUGCAAAUAGUCGUAAG [Fam3.1 aminoacylation ribozyme variant]	0.717	1.05	0.627	0.988	0.992	0.747
AAGUUUGCCAAGAGUCGCAAG [Fam3.1 aminoacylation ribozyme variant]	1.17	0.829	1.43	1.49	1.08	1.04
AAGUUUGCGAAUAGUCGUAAG [Fam3.1 aminoacylation ribozyme variant]	0.676	0.656	0.69	0.709	0.591	0.665
AAGUUUGCGAUUAGUCGCAAG [Fam3.1 aminoacylation ribozyme variant]	1.03	1.6	1.24	1.67	1.39	0.957
AAGUUUGCUAAAAGUCGGAAG [Fam3.1 aminoacylation ribozyme variant]	0.814	0.755	0.778	1.22	5.57	0.924
AAGUUUGCUAAACGUCGCAAG [Fam3.1 aminoacylation ribozyme variant]	0.739	0.608	0.537	0.603	0.887	0.542
AAGUUUGCUAACACUCGCAAG [Fam3.1 aminoacylation ribozyme variant]	1.11	0.857	0.828	0.996	0.873	0.988
AAGUUUGCUAACAUUCGCAAG [Fam3.1 aminoacylation ribozyme variant]	1.18	0.885	0.918	1.37	1.41	0.945
AAGUUUGCUAAGACUCGCAAG [Fam3.1 aminoacylation ribozyme variant]	0.771	0.73	0.675	0.776	0.878	0.97
AAGUUUGCUAAGAGCCGCAAG [Fam3.1 aminoacylation ribozyme variant]	0.622	0.806	0.614	0.83	1.1	0.695
AAGUUUGCUAAUAACCGCAAG [Fam3.1 aminoacylation ribozyme variant]	0.783	0.682	0.485	0.794	1.03	0.737
AAGUUUGCUAAUAAUCGCAGG [Fam3.1 aminoacylation ribozyme variant]	1.07	1.03	0.897	1.05	1.17	0.857
AAGUUUGCUAAUAAUGGCAAG [Fam3.1 aminoacylation ribozyme variant]	0.644	0.599	0.479	0.585	0.786	0.727
AAGUUUGCUAAUACUCGCUAG [Fam3.1 aminoacylation ribozyme variant]	0.63	0.532	0.594	0.445	0.624	0.507
AAGUUUGCUAAUAGACGCAAU [Fam3.1 aminoacylation ribozyme variant]	1.11	0.911	0.806	0.827	1.74	1.05
AAGUUUGCUAAUAGCCCCAAG [Fam3.1 aminoacylation ribozyme variant]	0.918	0.606	0.989	1.08	1.32	0.814
AAGUUUGCUAAUAGGCACAAG [Fam3.1 aminoacylation ribozyme variant]	0.799	0.755	0.742	0.552	1.37	0.735
AAGUUUGCUAAUAGGCGCAAC [Fam3.1 aminoacylation ribozyme variant]	1.15	1.32	1.27	1.39	1.19	0.997
AAGUUUGCUAAUAGUCCCAAC [Fam3.1 aminoacylation ribozyme variant]	0.639	0.505	0.585	0.629	1.04	0.643
AAGUUUGCUAAUAGUCCCUAG [Fam3.1 aminoacylation ribozyme variant]	0.917	0.896	0.786	0.898	1.29	0.988
AAGUUUGCUAAUAGUCGCUUG [Fam3.1 aminoacylation ribozyme variant]	0.844	0.763	0.738	0.995	0.791	0.745

Sequence	self-aminoacylation (biotinyl-Ile-oxazolone)	self-aminoacylation (biotinyl-Met-oxazolone)	self-aminoacylation (biotinyl-Leu-oxazolone)	self-aminoacylation (biotinyl-Trp-oxazolone)	self-aminoacylation (biotinyl-Phe-oxazolone)	self-aminoacylation (biotinyl-Val-oxazolone)
AAGUUUGCUAAUAGUCGGAAA [Fam3.1 aminoacylation ribozyme variant]	1.53	1.05	0.966	0.897	1.15	1.27
AAGUUUGCUAAUAGUCGUAGG [Fam3.1 aminoacylation ribozyme variant]	0.894	0.92	0.869	0.884	1.69	0.957
AAGUUUGCUAAUAGUCUCAGG [Fam3.1 aminoacylation ribozyme variant]	1.42	1.35	1.26	1.42	1.44	1.32
AAGUUUGCUAAUAGUCUCUAG [Fam3.1 aminoacylation ribozyme variant]	0.921	0.943	0.693	0.906	1.52	0.845
AAGUUUGCUAAUAGUGACAAG [Fam3.1 aminoacylation ribozyme variant]	0.844	0.828	0.657	1.25	1.55	1.04
AAGUUUGCUAAUAGUGGCAGG [Fam3.1 aminoacylation ribozyme variant]	0.868	0.798	1.08	1.11	0.939	0.634
AAGUUUGCUAAUAGUGGCCAG [Fam3.1 aminoacylation ribozyme variant]	0.746	0.838	0.736	1.29	0.779	0.669
AAGUUUGCUAAUAGUGGGAAG [Fam3.1 aminoacylation ribozyme variant]	0.841	0.971	0.876	0.598	1.48	1.03
AAGUUUGCUAAUAGUUGCAAG [Fam3.1 aminoacylation ribozyme variant]	1.01	1.03	0.872	0.998	1.42	0.975
AAGUUUGCUAAUAGUUGCAGG [Fam3.1 aminoacylation ribozyme variant]	1.45	1.06	1.64	1.23	1.72	1.17
AAGUUUGCUAAUAUUCACAAG [Fam3.1 aminoacylation ribozyme variant]	1.39	1.75	1.38	1.56	1.21	1.45
AAGUUUGCUAAUAUUCGCCAG [Fam3.1 aminoacylation ribozyme variant]	1.05	1.28	1.37	0.947	0.921	1.06
AAGUUUGCUAAUCGUCGCCAG [Fam3.1 aminoacylation ribozyme variant]	1.19	1.02	1.32	1.72	1.06	1.57
AAGUUUGCUAAUGCUCGCAAG [Fam3.1 aminoacylation ribozyme variant]	0.834	0.779	0.856	0.676	0.708	0.945
AAGUUUGCUAAUGGUCGCAAU [Fam3.1 aminoacylation ribozyme variant]	1.14	1	1.17	1.45	3.15	1.18
AAGUUUGCUAAUUGACGCAAG [Fam3.1 aminoacylation ribozyme variant]	0.774	0.937	0.716	0.772	1.18	0.833
AAGUUUGCUAAUUGUCGCACG [Fam3.1 aminoacylation ribozyme variant]	0.919	0.587	0.742	1.24	0.764	0.744
AAGUUUGCUAAUUGUCGUAAG [Fam3.1 aminoacylation ribozyme variant]	0.776	0.772	0.782	1.2	1.73	0.8
AAGUUUGCUACUAGUCGCAAU [Fam3.1 aminoacylation ribozyme variant]	1.23	0.874	1.05	0.974	1.02	1.2
AAGUUUGCUAGUAGUCGCCAG [Fam3.1 aminoacylation ribozyme variant]	0.825	0.852	0.774	1.91	0.843	0.975
AAGUUUGCUAGUAGUCGCUAG [Fam3.1 aminoacylation ribozyme variant]	0.758	0.796	1.04	0.8	1.34	0.794
AAGUUUGCUAGUAGUCGUAAG [Fam3.1 aminoacylation ribozyme variant]	0.718	0.715	0.614	0.662	1.49	0.76
AAGUUUGCUAUUAGCCGCAAG [Fam3.1 aminoacylation ribozyme variant]	0.766	0.683	0.834	0.62	0.714	0.634
AAGUUUGCUAUUAGUCGCAAU [Fam3.1 aminoacylation ribozyme variant]	1.41	1.49	1.14	1.43	1.11	1.32
AAGUUUGCUAUUAGUCGCGAG [Fam3.1 aminoacylation ribozyme variant]	1.39	1.34	1.73	2.3	4.31	1.03
